The values below come from the supplement of paper PMC12819154, “High-throughput peptide-centric local stability assay extends protein–ligand identification to membrane proteins, tissues and bacteria” (Nature Structural & Molecular Biology, 2025).

By UniProt entry, the sequences of proteins in these tests, tags left out. Where a name states a change or a piece, a line headed by the entry shows the natural chain unless it says otherwise.
UniProt Q8K0P3: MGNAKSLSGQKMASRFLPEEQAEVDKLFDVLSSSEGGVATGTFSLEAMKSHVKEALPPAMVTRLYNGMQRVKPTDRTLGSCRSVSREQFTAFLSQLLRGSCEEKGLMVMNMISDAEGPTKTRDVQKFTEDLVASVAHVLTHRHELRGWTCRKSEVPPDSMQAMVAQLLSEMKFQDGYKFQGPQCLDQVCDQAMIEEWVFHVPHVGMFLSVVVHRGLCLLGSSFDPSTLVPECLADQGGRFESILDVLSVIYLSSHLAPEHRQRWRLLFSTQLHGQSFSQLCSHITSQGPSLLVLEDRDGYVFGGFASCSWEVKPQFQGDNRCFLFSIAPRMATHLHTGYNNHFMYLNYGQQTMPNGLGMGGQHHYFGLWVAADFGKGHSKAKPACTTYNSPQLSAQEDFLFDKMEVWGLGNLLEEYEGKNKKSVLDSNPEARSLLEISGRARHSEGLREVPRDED
UniProt Q8CDJ8: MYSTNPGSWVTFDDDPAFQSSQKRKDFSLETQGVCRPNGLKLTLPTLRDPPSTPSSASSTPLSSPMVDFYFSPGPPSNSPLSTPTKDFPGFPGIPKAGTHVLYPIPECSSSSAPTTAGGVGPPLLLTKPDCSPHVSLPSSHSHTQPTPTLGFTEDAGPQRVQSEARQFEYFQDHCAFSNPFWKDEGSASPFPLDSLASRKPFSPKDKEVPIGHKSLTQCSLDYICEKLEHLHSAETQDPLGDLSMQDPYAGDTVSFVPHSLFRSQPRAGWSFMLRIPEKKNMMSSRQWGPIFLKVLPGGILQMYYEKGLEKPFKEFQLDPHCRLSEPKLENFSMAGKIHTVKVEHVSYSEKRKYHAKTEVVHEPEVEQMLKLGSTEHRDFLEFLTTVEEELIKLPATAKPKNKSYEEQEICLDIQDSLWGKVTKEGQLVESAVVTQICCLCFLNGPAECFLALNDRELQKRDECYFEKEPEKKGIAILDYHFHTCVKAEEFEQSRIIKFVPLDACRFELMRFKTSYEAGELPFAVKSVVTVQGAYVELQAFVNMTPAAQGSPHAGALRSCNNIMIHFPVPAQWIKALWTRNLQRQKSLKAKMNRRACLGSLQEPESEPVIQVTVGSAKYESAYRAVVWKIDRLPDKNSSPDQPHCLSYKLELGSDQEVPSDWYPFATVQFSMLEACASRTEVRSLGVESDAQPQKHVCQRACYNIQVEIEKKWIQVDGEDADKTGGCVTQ
UniProt Q8CG76: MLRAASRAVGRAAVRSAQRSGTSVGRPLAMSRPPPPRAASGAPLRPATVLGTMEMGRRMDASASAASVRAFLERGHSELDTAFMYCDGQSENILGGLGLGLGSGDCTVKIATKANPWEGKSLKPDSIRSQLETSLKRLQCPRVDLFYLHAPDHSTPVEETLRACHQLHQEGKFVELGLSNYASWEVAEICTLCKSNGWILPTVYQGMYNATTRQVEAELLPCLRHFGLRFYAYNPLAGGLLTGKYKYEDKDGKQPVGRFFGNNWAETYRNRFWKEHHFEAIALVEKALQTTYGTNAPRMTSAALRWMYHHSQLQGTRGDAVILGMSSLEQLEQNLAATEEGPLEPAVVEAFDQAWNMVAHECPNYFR
UniProt Q8CFJ7: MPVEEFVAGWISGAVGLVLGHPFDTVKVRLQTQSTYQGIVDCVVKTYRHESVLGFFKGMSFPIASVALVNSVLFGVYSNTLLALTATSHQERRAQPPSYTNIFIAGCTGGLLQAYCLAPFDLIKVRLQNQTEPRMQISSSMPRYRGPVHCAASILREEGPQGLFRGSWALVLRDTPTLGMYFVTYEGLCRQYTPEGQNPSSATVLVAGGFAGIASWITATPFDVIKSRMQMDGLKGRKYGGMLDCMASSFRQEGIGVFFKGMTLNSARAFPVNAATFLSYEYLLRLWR
UniProt Q8CIG3: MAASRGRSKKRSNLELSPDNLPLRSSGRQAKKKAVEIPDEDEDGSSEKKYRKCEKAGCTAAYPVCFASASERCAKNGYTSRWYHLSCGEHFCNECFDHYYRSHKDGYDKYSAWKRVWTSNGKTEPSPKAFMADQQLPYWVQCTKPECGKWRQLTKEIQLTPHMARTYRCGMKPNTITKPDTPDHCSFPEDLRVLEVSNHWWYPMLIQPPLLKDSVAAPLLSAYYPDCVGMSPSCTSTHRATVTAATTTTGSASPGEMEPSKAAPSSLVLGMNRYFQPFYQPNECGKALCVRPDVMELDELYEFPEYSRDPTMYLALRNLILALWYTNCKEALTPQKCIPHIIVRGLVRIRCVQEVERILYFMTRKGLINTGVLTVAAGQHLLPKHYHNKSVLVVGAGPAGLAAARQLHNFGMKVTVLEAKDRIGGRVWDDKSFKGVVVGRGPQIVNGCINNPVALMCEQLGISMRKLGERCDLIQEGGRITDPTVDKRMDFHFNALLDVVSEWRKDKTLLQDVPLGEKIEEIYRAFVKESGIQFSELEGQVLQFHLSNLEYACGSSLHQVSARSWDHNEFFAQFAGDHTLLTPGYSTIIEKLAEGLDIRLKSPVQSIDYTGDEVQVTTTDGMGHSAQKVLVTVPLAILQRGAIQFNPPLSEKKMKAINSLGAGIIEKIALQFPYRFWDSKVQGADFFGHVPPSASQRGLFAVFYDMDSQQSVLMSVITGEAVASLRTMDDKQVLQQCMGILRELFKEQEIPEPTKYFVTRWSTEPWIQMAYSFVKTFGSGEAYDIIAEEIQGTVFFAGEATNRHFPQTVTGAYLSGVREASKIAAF
UniProt Q8CGA2: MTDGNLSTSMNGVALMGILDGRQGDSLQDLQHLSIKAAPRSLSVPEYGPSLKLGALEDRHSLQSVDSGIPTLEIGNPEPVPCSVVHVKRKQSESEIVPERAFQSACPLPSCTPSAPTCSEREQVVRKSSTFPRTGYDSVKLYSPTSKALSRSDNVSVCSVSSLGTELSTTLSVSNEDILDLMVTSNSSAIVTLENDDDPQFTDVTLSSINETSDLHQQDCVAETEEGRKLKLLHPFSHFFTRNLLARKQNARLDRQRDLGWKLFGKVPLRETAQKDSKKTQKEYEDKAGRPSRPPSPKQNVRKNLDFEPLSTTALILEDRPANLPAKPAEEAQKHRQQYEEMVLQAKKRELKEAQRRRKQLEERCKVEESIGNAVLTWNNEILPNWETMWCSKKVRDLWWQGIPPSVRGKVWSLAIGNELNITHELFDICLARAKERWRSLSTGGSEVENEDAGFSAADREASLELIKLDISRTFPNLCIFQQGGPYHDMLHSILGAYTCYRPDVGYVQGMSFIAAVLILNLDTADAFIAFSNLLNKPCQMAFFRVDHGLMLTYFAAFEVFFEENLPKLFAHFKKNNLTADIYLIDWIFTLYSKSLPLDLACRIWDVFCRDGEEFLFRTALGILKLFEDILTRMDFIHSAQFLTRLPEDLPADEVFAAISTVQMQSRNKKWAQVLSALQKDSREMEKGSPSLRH
UniProt Q8JZP3: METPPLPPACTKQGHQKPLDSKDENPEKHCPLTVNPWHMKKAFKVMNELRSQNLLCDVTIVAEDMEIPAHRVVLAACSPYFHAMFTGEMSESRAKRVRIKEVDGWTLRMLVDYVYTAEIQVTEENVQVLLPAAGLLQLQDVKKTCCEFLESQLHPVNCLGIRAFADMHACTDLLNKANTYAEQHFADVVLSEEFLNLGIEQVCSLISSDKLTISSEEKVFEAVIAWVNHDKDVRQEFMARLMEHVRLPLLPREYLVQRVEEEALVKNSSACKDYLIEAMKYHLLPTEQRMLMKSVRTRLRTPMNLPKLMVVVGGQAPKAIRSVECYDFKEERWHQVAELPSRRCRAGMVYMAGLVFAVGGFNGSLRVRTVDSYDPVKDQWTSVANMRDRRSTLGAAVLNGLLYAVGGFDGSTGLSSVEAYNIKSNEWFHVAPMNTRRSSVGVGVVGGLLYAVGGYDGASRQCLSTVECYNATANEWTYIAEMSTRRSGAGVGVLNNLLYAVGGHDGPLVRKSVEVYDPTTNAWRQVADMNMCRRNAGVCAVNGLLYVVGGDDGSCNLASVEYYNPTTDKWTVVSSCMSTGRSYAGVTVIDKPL
UniProt Q8K012: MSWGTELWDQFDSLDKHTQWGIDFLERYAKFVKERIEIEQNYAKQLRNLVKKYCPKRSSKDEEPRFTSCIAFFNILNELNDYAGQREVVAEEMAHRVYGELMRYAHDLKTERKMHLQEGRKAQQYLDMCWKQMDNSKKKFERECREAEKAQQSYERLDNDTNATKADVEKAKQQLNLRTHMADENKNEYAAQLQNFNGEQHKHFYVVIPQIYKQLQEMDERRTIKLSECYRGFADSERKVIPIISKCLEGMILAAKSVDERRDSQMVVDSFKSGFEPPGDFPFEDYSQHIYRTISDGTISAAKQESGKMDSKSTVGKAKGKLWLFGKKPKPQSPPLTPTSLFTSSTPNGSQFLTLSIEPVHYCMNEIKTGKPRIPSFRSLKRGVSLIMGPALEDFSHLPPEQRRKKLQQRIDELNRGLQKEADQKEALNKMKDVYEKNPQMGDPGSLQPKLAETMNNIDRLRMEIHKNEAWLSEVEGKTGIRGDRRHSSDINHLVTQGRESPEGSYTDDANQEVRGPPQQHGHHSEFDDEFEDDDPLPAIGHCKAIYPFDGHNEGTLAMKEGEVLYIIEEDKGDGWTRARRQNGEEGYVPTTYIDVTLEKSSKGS
UniProt Q8CJ40: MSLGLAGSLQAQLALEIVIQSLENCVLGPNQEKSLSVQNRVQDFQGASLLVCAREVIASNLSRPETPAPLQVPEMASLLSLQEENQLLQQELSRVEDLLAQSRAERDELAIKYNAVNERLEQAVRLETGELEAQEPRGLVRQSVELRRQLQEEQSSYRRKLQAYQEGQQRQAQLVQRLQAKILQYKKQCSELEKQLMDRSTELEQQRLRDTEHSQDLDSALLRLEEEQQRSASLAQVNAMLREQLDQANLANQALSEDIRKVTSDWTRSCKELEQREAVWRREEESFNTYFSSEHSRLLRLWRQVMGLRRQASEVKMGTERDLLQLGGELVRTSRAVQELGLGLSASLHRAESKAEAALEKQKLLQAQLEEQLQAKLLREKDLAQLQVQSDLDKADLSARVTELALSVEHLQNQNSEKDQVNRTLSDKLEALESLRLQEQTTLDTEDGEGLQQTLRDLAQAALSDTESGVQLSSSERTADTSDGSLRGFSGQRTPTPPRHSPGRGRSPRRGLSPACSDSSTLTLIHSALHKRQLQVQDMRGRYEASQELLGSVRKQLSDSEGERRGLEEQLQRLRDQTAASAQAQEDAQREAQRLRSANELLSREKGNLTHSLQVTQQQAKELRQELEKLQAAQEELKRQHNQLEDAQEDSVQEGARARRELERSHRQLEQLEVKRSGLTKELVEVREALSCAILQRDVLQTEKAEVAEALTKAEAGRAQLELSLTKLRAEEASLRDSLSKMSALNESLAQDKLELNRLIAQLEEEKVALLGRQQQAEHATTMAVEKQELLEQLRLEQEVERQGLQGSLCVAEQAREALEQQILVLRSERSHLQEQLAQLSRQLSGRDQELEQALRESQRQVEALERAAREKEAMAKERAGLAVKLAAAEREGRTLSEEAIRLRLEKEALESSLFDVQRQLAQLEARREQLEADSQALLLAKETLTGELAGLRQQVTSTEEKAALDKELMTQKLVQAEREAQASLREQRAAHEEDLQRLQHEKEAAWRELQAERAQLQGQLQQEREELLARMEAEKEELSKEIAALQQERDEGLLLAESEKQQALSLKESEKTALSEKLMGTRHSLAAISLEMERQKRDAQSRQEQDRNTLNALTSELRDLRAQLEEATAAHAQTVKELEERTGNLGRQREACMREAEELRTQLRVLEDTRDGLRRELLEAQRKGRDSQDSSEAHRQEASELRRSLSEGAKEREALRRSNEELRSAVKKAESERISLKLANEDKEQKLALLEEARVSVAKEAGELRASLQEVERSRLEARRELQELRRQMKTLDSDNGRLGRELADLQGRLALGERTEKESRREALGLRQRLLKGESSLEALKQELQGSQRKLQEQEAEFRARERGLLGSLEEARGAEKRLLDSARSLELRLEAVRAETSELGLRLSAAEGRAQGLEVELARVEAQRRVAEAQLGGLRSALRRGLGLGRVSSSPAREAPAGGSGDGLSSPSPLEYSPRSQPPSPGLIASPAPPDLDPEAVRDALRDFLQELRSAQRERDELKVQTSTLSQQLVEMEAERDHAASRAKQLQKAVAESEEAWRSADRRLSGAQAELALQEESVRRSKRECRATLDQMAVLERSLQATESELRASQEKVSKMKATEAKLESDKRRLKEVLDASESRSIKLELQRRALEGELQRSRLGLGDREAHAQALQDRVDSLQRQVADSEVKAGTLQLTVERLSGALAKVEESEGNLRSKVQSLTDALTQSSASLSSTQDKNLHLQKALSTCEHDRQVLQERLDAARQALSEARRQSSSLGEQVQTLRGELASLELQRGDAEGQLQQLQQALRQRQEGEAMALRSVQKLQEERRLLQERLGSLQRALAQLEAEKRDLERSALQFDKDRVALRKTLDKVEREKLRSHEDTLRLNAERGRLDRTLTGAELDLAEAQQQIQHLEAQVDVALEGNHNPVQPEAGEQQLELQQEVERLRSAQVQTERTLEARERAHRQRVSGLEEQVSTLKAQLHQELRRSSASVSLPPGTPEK

Some of the results follow. Most values lie at the level of the controls, where differences are scatter.

Compound in the test: CN[C@@H]1C[C@H]2O[C@@](C)([C@@H]1OC)n1c3ccccc3c3c4c(c5c6ccccc6n2c5c31)C(=O)NC4 [staurosporine]
Description: log2 fold change of tryptic peptide abundance, ligand vs vehicle (limited proteolysis) (log2 ratio); higher = more trypsin-susceptible (destabilized). As to conditions: ligand concentration: 20 uM; sample: mouse liver crude lysate; replicate design: treated separately.
For “UniProt Q8K0P3 (peptide sequence: LYNGMQR, peptide start residue: 64)”, the log2 fold change is 0.0688. To “UniProt Q8CDJ8 (peptide sequence: QWGPIFLK, peptide start residue: 287)” belongs -0.629.

In the case of “UniProt Q8CHE4 (peptide sequence: SYIMSCEEER, peptide start residue: 1263)”, the log2 fold change amounted to 0.587. As to “UniProt Q8CG76 (peptide sequence: EHHFEAIALVEK, peptide start residue: 275)”, the log2 fold change was -0.268. Then “UniProt Q8CHY3 (peptide sequence: SLHQYAAQR, peptide start residue: 476)”, with 0.447. To “UniProt Q8CFJ7 (peptide sequence: YRGPVHCAASILR, peptide start residue: 144)” belongs -0.333. To “UniProt Q8CIG3 (peptide sequence: AVEIPDEDEDGSSEKK, peptide start residue: 34)” belongs 0.128; to “UniProt Q8CGA2 (peptide sequence: LFGKVPLR, peptide start residue: 263)”, -0.288; to “UniProt Q8JZP3 (peptide sequence: YHLLPTEQR, peptide start residue: 281)”, 0.336.

As for “UniProt Q8K012 (peptide sequence: MKDVYEKNPQMGDPGSLQPK, peptide start residue: 431)”, the log2 fold change came to 0.409. To “UniProt Q8CJ40 (peptide sequence: SLSEGAKER, peptide start residue: 1205)” belongs 0.255.
